Here are results for one substance from patent US5700779A (Cortech, Inc., priority 1996, dated 1997).

A short description of this data set: solid-phase peptide synthesis. Particulars: whole synthesis, scale 0.5 meq.

As to “D-Arg-Arg-Pro-Hyp-Gly-Thi-Ser-NPeg-Oic-Arg”, the crude mass came to 487 mg.
